Assay results as given in PubChem BioAssay AID2685 (National Center for Advancing Translational Sciences (NCATS), 2010).
The other results are listed elsewhere or left out. Further columns of the screen follow, without active or inactive calls. Compounds called inactive in the main read-out are mostly missing here. Words in brackets tell the shape of the fitted curve; partial curves, single points and poor fits give uncertain potencies.

Assay: qHTS Assay for Lipid Storage Modulators in Drosophila S3 Cells;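 on cell number change: cells counted by Cell Tracker Red CMTPX staining in the red channel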
Settings: BODIPY lipid droplet fluorescence, 18-24 h; for cell number change: measured here: cell count max response, cells fed with added oleic acid
Outline: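 Laser-scanning cytometry quantifies lipid droplet accumulation (500–530 nm total intensity; droplet/cell object ratio) in oleic acid-fed (400 uM added) Drosophila S3 cells treated with a concentration series. 20 uM Triacsin C defined 100% inhibition.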

[1] = measured here: lipid fluorescence (Fed channel) AC50, cells fed with added oleic acid
[2] = measured here: cell number channel AC50, cells fed with added oleic acid

With O=C(c1ccc(NC2=NC3CS(=O)(=O)CC3S2)cc1)N(CCO)Cc1ccccc1 (configuration not stated) the cell number change was -16.5% and the AC50 [1] was 29.1 µM [rising, single point].
With C#CC(CC)(CC)NC(=O)c1cc(S(=O)(=O)N2CCCCC2)ccc1N1CCOCC1 the AC50 [1] was 0.116 µM [rising, full curve, poor fit].
In the case of CSc1ccc(CCCCCCOC(=O)C(C)(C)C)cc1, the cell number change is reported as -41.8%, the AC50 [2] is reported as 0.13 µM [falling, full curve] and the AC50 [1] is reported as 10.3 µM [falling, partial curve].
Cc1nnc(N2C(=O)C(=O)/C(=C(/O)c3ccc4c(c3)OCCO4)C2c2ccc([N+](=O)[O-])cc2)s1 (configuration not stated) gave a cell number change of -20.4%.
In the case of Cc1ccc(OCC(=O)Nc2ccc(NC(=O)c3ccco3)cc2)c(C)c1, the cell number change is reported as 28.6% and the AC50 [1] is reported as 3.26 µM [falling, full curve].
With O=C1C=C(c2ccccc2)C(O)(c2ccccc2)C1 (configuration not stated) the cell number change was -15.3% and the AC50 [1] was 4.61 µM [falling, full curve].
In the case of Cc1noc(C)c1-c1nnc(-c2ccc(OC(F)(F)F)cc2)o1, the cell number change is reported as 25.8% and the AC50 [1] is reported as 5.8 µM [rising, full curve, poor fit].
In the case of COc1cccc(/C=C/C(=O)N2CCN(S(=O)(=O)c3ccccc3)CC2)c1OC, the cell number change is reported as -48.4%, the AC50 [2] is reported as 20.6 µM [falling, partial curve] and the AC50 [1] is reported as 23.1 µM [falling, partial curve].
For COC(=O)C(NNc1ccccc1)(NC(=O)c1ccc(F)cc1)C(F)(F)F (configuration not stated), the cell number change was 49% and the AC50 [2] was 29.1 µM [rising, single point].
With CCCCCNCc1ccc(Cl)cc1 the cell number change was 23.5% and the AC50 [1] was 1.64 µM [falling, partial curve].
In the case of Cc1ccc(S(=O)(=O)N2CCCCC2)cc1NC(=O)c1ccc(Cl)nc1, the cell number change is reported as -19.8% and the AC50 [1] is reported as 4.61 µM [rising, full curve].
For CC(=O)N1CCCc2cc(S(=O)(=O)N3CCCC(C(=O)Nc4cccc(C)c4)C3)ccc21 (configuration not stated), the cell number change was -11%.
In the case of COc1cc(/C=C2\COC/C(=C\c3cc(OC)c(OC)c(OC)c3)C2=O)cc(OC)c1OC, the cell number change is reported as -65.4%, the AC50 [2] is reported as 5.17 µM [falling, full curve, poor fit] and the AC50 [1] is reported as 0.116 µM [falling, full curve, poor fit].
With COc1cccc(C(=O)Nc2ccncc2)c1 the cell number change was 5.33%.
Work on CCOC(=O)c1cc2sccc2n1CC(=O)OC(C)C yielded a cell number change of -25.5%.
For Cc1nc2ccccc2c2oc(C(=O)NCc3ccc4c(c3)OCO4)cc12, the cell number change was 34.7%, the AC50 [2] was 29.1 µM [rising, single point] and the AC50 [1] was 6.51 µM [rising, partial curve].
For CCOc1ccc(Cn2nnc(C(=O)Nc3cc(OC)cc(OC)c3)c2N)cc1, the cell number change was 5.57% and the AC50 [1] was 7.31 µM [rising, partial curve].
For Cc1[nH]n(-c2ccccc2)c(=O)c1N=Nc1ccc(Cl)cc1, the AC50 [1] was 16.4 µM [falling, single point].
For CC(CNC(=O)C(C)(C)C)NC(=O)C(C)(C)C (configuration not stated), the cell number change was -11.9% and the AC50 [1] was 0.231 µM [falling, full curve].
With C=CCOc1ccc(CN(C)C(=O)C2CCCO2)cc1 (configuration not stated) the cell number change was 6.67%.
For Cc1nc2c(C(=O)N3CCCC3)cnn2c(C)c1Cc1c(F)cccc1Cl, the AC50 [2] was 3.26 µM [rising, partial curve].
In the case of COc1cc2[nH]c(=S)n(Cc3ccco3)c(=O)c2cc1OC, the AC50 [1] is reported as 0.0731 µM [rising, full curve, poor fit].
Work on O=C(c1ccco1)N1CCN(C(=O)C2CCCc3c2[nH]c2ccc(Cl)cc32)CC1 (configuration not stated) yielded a cell number change of 11.8%.
With CCCOC(=O)C(C)n1cnc2scc(-c3ccc(C)cc3)c2c1=O (configuration not stated) the cell number change was -32.8%, the AC50 [2] was 13 µM [falling, single point] and the AC50 [1] was 23.1 µM [rising, single point].
In the case of Cc1ccn2c(=O)nc(SCC(=O)Nc3ccc4c(c3)OCO4)nc2c1, the AC50 [2] is reported as 0.517 µM [rising, full curve].
With CSc1ncccc1C(=O)Nc1cc(C)ccn1 the cell number change was 8.49%, the AC50 [2] was 0.651 µM [rising, full curve, poor fit] and the AC50 [1] was 0.411 µM [rising, full curve].
For CCC(=O)N(CCc1ccccc1)Cc1cc2cc(C)ccc2[nH]c1=O, the cell number change was 21.6% and the AC50 [1] was 6.51 µM [rising, single point].
In the case of CCCCC(C)(O)C/C=C/[C@H]1[C@H](O)CC(=O)[C@@H]1CCCCCCC(=O)OC (some centres not stated), the AC50 [1] is reported as 13 µM [falling, partial curve].
With FC(F)(F)c1nnc(-c2ccccc2)nc1Oc1ccc(Cl)cc1Cl the cell number change was -67.9% and the AC50 [2] was 18.4 µM [falling, single point].
With O=C(CN1C(=O)C2CC=CCC2C1=O)Nc1nc2ccccc2s1 (configuration not stated) the cell number change was -22.3% and the AC50 [1] was 0.411 µM [falling, full curve, poor fit].
With O=[N+]([O-])c1ccc(OCc2cnc(Cl)s2)c([N+](=O)[O-])c1 the cell number change was 28.1% and the AC50 [1] was 0.461 µM [falling, single point].
In the case of Cc1ccccc1N1C(=O)CC(c2c[nH]c3ccccc23)C1=O (configuration not stated), the cell number change is reported as -26.4% and the AC50 [1] is reported as 29.1 µM [falling, single point].
With O=C(O)CCC(CNS(=O)(=O)c1ccccc1)C(F)(F)F (configuration not stated) the cell number change was 28.8%.
In the case of COC(=O)c1cc(S(=O)(=O)NCC2CCN(CCc3ccc(OC)cc3)CC2)cn1C, the cell number change is reported as 6.12% and the AC50 [1] is reported as 0.0058 µM [falling, full curve, poor fit].
In the case of COc1ccccc1N(C(=O)Cn1nnc(-c2ccc(C)o2)n1)C(C(=O)NC1CCCC1)c1ccncc1 (configuration not stated), the cell number change is reported as 31.6% and the AC50 [2] is reported as 0.206 µM [rising, full curve].
In the case of Cc1cc(NC(=O)CSc2nc3[nH]c(=O)cc(O)c3s2)ccc1Br, the AC50 [1] is reported as 0.651 µM [rising, full curve].
With O=C(NC(Cc1c[nH]c2ccccc12)C(=O)O)c1ccccc1 (configuration not stated) the AC50 [2] was 0.58 µM [rising, full curve, poor fit] and the AC50 [1] was 0.82 µM [rising, single point].
In the case of Cc1ccc(NC(=O)Cc2ccc(-n3cccc3)cc2)c(C)c1, the cell number change is reported as 40.7%, the AC50 [2] is reported as 29.1 µM [rising, single point] and the AC50 [1] is reported as 29.1 µM [rising, single point].
With Cc1ccc(NC(=O)CSc2nnc(N)s2)c([N+](=O)[O-])c1 the cell number change was 56.6% and the AC50 [2] was 29.1 µM [rising, single point].
With COc1ccc(OC)c(S(=O)(=O)NCC(=O)NC2CCCCCC2)c1 the cell number change was -3.06%, the AC50 [2] was 6.51 µM [falling, single point] and the AC50 [1] was 4.11 µM [falling, single point].
Compound Fc1ccccc1Cc1noc(CN2CCCC(CN3CCOCC3)C2)n1 (configuration not stated) has a cell number change of 22.6%.
For Cc1cc(C)nc(NC(=NCCc2c[nH]c3ccccc23)NC(=O)C(C)(C)C)n1, the cell number change was -13.2% and the AC50 [2] was 0.00461 µM [falling, full curve, poor fit].
With CC(=O)[C@@H]1[C@@H](C(=O)c2ccc(C)cc2)[C@]2(C(=O)Nc3ccccc32)[C@H]2C=Cc3cc(F)ccc3N12 the cell number change was 9.78% and the AC50 [1] was 29.1 µM [falling, single point].
COCCNc1oc(-c2ccco2)nc1S(=O)(=O)c1ccccc1 gave a cell number change of 22.8%.
In the case of COc1ccc(-n2nc3c(N4CCCC(C(=O)NCc5ccccc5C)C4)nnc(C)c3c2C)cc1 (configuration not stated), the cell number change is reported as -20.6% and the AC50 [1] is reported as 2.91 µM [falling, full curve, poor fit].
In the case of c1ccn2c(SCc3ccc4c(c3)OCO4)nnc2c1, the cell number change is reported as 21.1%, the AC50 [2] is reported as 3.26 µM [rising, single point] and the AC50 [1] is reported as 8.2 µM [rising, partial curve].
In the case of N#CC1(NC(=O)COC(=O)c2cc(=O)[nH]c3ccccc23)CCCCC1, the cell number change is reported as 15.7%.
CCCC(=O)Nc1nnc(SCC(=O)Nc2ccc3c(c2)OCCO3)s1 showed a cell number change of -17.1%.
For O=C(Nc1ccc(OC(F)F)cc1)c1cc(S(=O)(=O)N2CCCCC2)ccc1N1CCOCC1, the cell number change was -10.9% and the AC50 [1] was 6.51 µM [rising, single point].
In the case of CSc1c(CC(=O)Nc2ccccc2)n(C)c2ccccc12, the cell number change is reported as -33.4%, the AC50 [2] is reported as 14.6 µM [falling, single point] and the AC50 [1] is reported as 0.116 µM [rising, full curve, poor fit].
In the case of COc1ccc(CCNC(=O)c2[nH]c(C)c(C(C)=O)c2C)cc1, the cell number change is reported as -15.8% and the AC50 [1] is reported as 6.51 µM [rising, single point].
In the case of COc1ccc(S(=O)(=O)NCc2ccco2)cc1C(=O)N1CCOCC1, the cell number change is reported as 0.833%.
For O=C(NCc1ccco1)C1CCN(C(=O)c2ccc(Cl)cc2)CC1, the cell number change was -1.18% and the AC50 [1] was 1.16 µM [falling, partial curve].
With CCOC(=O)c1cc(-c2ccco2)nc2c1c(C)nn2CCC#N the cell number change was 43.1% and the AC50 [1] was 3.26 µM [rising, partial curve].
In the case of CC(=O)c1cccc(NC(=O)c2ccc3ccccc3c2)c1, the cell number change is reported as -23.4% and the AC50 [1] is reported as 29.1 µM [falling, single point].
With Cc1ccc(-n2nc(C)c(C(=O)N3CCN(C(=O)c4ccco4)CC3)c2-n2cccc2)cc1 the AC50 [1] was 20.6 µM [falling, partial curve, poor fit].
In the case of CCCn1c(SCC(=O)Nc2cccc(C)n2)nnc1-c1ccco1, the cell number change is reported as -0.608%.
COc1cc(NC(=O)c2cc([N+](=O)[O-])ccc2NC(=O)CNC2CCCCC2C)cc(OC)c1 (configuration not stated) gave a cell number change of 1.32%.
With Cc1cc(C)nc(NC(=NCCc2c[nH]c3ccccc23)NC(=O)Nc2ccc(Cl)c(Cl)c2)n1 the cell number change was 20%, the AC50 [2] was 0.103 µM [rising, full curve, poor fit] and the AC50 [1] was 29.1 µM [rising, single point].
With CC(NC(=O)CN1C(=O)NC(C)(c2cccc3ccccc23)C1=O)c1ccccc1 (configuration not stated) the cell number change was 3.75%.
With COc1ccc(/C=N/NC(=S)Nc2ccccc2)cc1COc1ccc(Br)cc1 the cell number change was 3.08% and the AC50 [1] was 0.164 µM [rising, full curve, poor fit].
With CCCCSc1nc(C)c(C(C)=O)cc1C#N the cell number change was -27.8% and the AC50 [1] was 32.6 µM [falling, single point].
